What was measured:
B16 = test: Proliferation test, B16 melanoma cells; type: cell-based, murine; conditions: Mus musculus, linear regression of survival percentage
Method: (§1) Cell lines: Human prostate carcinoma (PC-3), human colon carcinoma (HT-29), murine melanoma (B-16) and its drug resistant subclone (B-16 MDR), mouse fibroblasts (3T3), myeloid leukemia (HL 60) and its drug resistant subclone (HL 60 MX2), endometrium cell line (MES SA) and its drug resistant subclone (MES DX5), jurkat T lymphoma and monocyte leukemia (U-937), were used in this study.
(§2) Proliferation of cancer and normal cells: Proliferation was measured by neutral red assay or by a fluorometric assay quantitating DNA content. In the neutral red assay, the neutral red is absorbed by lysosomes, thus causing coloring of living cells. Quantitative analysis is performed by colorimetric assay (ELISA reader at 550 nm). In the fluorometric assay, alamar blue is used as a redox indicator. Alamar blue fluorescence was measured at an excitation wavelength of 544 nm and an emission wavelength of […] (FLUOstar BMG Lab Technologies, Offenburg, Germany).
(§3) The cells were sub-cultured and the tested compounds were added thereto in increasing concentrations. The IC50 values were determined by linear regression of the survival percentage of the cells.

[1] = test system: normal and transformed cells; test: Proliferation tests, summary over the tested cell lines; type: cell-based; conditions: read-out: IC50 range, anti-proliferative activity
Method: as §2, §3

HT-29 = test: Proliferation test, HT-29 cells; type: cell-based; conditions: Homo sapiens, linear regression of survival percentage
Method: as §1, §2, §3

Normal rat fibroblasts = test: Proliferation test, normal rat fibroblasts; type: cell-based; conditions: Fibroblast, linear regression of survival percentage
Method: The primary cultures of rat fibroblasts were obtained from neonatal rats using known procedures.
as §2, §3

B16 MDR = test: Proliferation test, B16 MDR cells; type: cell-based, murine; conditions: Mus musculus; linear regression of survival percentage
Method: as §1, §2, §3

Measured: IC50

NCCCC(=O)O [GABA, γ-aminobutyric acid, reference compound]
> 20 mM: all assays above
